# Experimental data from the supplement of paper PMC2577665.
# ± gives the standard deviation of the averaged measurements. Single values of this set are uncertain.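 Every well combined ERalpha-negative HeLa cells, transfected ERalpha, a two-estrogen-response-element reporter, and overexpression of a single poorly characterized human cDNA. Any gene lowering the signal to at most the BRCA1 positive control level, about 0.6 of empty vector, was called a repressor hit.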
# System: ERE-luciferase reporter with exogenous ERalpha in HeLa cells
# Assay: relative ERE luciferase activity (Firefly/Renilla) upon cDNA overexpression, relative to empty vector (fold of empty vector); higher = stronger ERalpha transactivation (less repression)
# Settings: 17beta-estradiol: 10 nM; 12 h
row,Substance,relative ERE luciferase activity
1,MESTLGAGIVIAEALQNQLAWLENVWLWITFLGDPKILFLFYFPAAYYASRRVGIAVLWISLITEWLNLIFKWFLFGDRPFWWVHESGYYSQAPAQVHQFPSSCETGPGSPSGHCMITGAALWPIMTALSSQVATRARSRWVRVMPSLAYCTFLLAVGLSRIFILAHFPHQVLAGLITGAVLGWLMTPRVPMERELSFYGLTALALMLGTSLIYWTLFTLGLDLSWSISLAFKWCERPEWIHVDSRPFASLSRDSGAALGLGIALHSPCYAQVRRAQLGNGQKIACLVLAMGLLGPLDWLGHPPQISLFYIFNFLKYTLWPCLVLALVPWAVHMFSAQEAPPIHSS [G6PC3],1.32
2,MVSSPCTQASSRTCSRILGLSLGTAALFAAGANVALLLPNWDVTYLLRGLLGRHAMLGTGLWGGGLMVLTAAILISLMGWRYGCFSKSGLCRSVLTALLSGGLALLGALICFVTSGVALKDGPFCMFDVSSFNQTQAWKYGYPFKDLHSRNYLYDRSLWNSVCLEPSAAVVWHVSLFSALLCISLLQLLLVVVHVINSLLGLFCSLCEK [TM4SF19],1.02 ± 0.021
3,GJB6,2.22
4,MYSAPSACTCLCLHFLLLCFQVQVLVAEENVDFRIHVENQTRARDDVSRKQLRLYQLYSRTSGKHIQVLGRRISARGEDGDKYAQLLVETDTFGSQVRIKGKETEFYLCMNRKGKLVGKPDGTSKECVFIEKVLENNYTALMSAKYSGWYVGFTKKGRPRKGPKTRENQQDVHFMKRYPKGQPELQKPFKYTTVTKRSRRIRPTHPA [FGF18],1.16
5,MGWTMRLVTAALLLGLMMVVTGDEDENSPCAHEALLDEDTLFCQGLEVFYPELGNIGCKVVPDCNNYRQKITSWMEPIVKFPGAVDGATYILVMVDPDAPSRAEPRQRFWRHWLVTDIKGADLKKGKIQGQELSAYQAPSPPAHSGFHRYQFFVYLQEGKVISLLPKENKTRGSWKMDRFLNRFHLGEPEASTQFMTQNYQDSPTLQAPRERASEPKHKNQAEIAAC [PEBP4],0.961
6,MPARCVAAHCGNTTKSGKSLFRFPKDRAVRLLWDRFVRGCRADWYGGNDRSVICSDHFAPACFDVSSVIQKNLRFSQRLRLVAGAVPTLHRVPAPAPKRGEEGDQAGRLDTRGELQAARHSEAAPGPVSCTRPRAGKQAAASQITCENELVQTQPHADNPSNTVTSVPTHCEEGPVHKSTQISLKRPRHRSVGIQAKVKAFGKRLCNATTQTEELWSRTSSLFDIYSSDSETDTDWDIKSEQSDLSYMAVQVKEETC [THAP10],1.23
7,MDETQGPLAMTVHLLANSGHGSLLQRTLDQLLDCICPEVRLFQVSERASPVKYCEKSHSKRSRFPGMSVLLFLHESPGEDRLFRVLDSLQHSPWQCYPTQDTRGRLCPYFFANQEFYSLDSQLPIWGVRQVHCGSEILRVTLYCSFDNYEDAIRLYEMILQREATLQKSNFCFFVLYASKSFALQLSLKQLPPGMSVDPKESSVLQFKVQEIGQLVPLLPNPCMPISSTRWQTQDYDGNKILLQVQLNPELGVKNGILGAGMLPLGSRLTSVSAKRTSEPRSQRNQGKRSQGHSLELPEPSGSPTSDRCAGTSWKSPGRSFQVSSPAMGAHLHLSSHHLESGARMKVLNRENSFQKLEAETNVDTGLTIINSEPRQTYFGGFPRDLQTSQPPFCLPASSLGVATSKNNSVLKERVSPLPLAGQRDLGTRKTISECLLHLQVQGEEKEEDEEEFFI [FAM124B],1.18 ± 0.12
8,MEDFATRTYGTSGLDNRPLFGETSAKDRIINLVVGSLTSLLILVTLISAFVFPQLPPKPLNIFFAVCISLSSITACILIYWYRQGDLEPKFRKLIYYIIFSIIMLCICANLYFHDVGR [C7orf23],1.23
9,MDLLFGRRKTPEELLRQNQRALNRAMRELDRERQKLETQEKKIIADIKKMAKQGQMDAVRIMAKDLVRTRRYVRKFVLMRANIQAVSLKIQTLKSNNSMAQAMKGVTKAMGTMNRQLKLPQIQKIMMEFERQAEIMDMKEEMMNDAIDDAMGDEEDEEESDAVVSQVLDELGLSLTDELSNLPSTGGSLSVAAGGKKAEAAASALADADADLEERLKNLRRD [CHMP2A],1.21
10,MAGGYGVMGDDGSIDYTVHEAWNEATNVYLIVILVSFGLFMYAKRNKRRIMRIFSVPPTEETLSEPNFYDTISKIRLRQQLEMYSISRKYDYQQPQNQADSVQLSLE [C8orf40],1
11,MRVTLATIAWMVSFVSNYSHTANILPDIENEDFIKDCVRIHNKFRSEVKPTASDMLYMTWDPALAQIAKAWASNCQFSHNTRLKPPHKLHPNFTSLGENIWTGSVPIFSVSSAITNWYDEIQDYDFKTRICKKVCGHYTQVVWADSYKVGCAVQFCPKVSGFDALSNGAHFICNYGPGGNYPTWPYKRGATCSACPNNDKCLDNLCVNRQRDQVKRYYSVVYPGWPIYPRNRYTSLFLIVNSVILILSVIITILVQHKYPNLVLLD [GLIPR1],1.08
12,MMCTAKKCGIRFQPPAIILIYESEIKGKIRQRIMPVRNFSKFSDCTRAAEQLKNNPRHKSYLEQVSLRQLEKLFSFLRGYLSGQSLAETMEQIQRETTIDPEEDLNKLDDKELAKRKSIMDELFEKNQKKKDDPNFVYDIEVEFPQDDQLQSCGWDTESADEF [C3orf34],1.05
13,MKDRLQELKQRTKEIELSRDSHVSTTETEEQGVFLQQAVIYEREPVAERHLHEIQKLQESINNLADNVQKFGQQQKSLVASMRRFSLLKRESTITKEIKIQAEYINRSLNDLVKEVKKSEVENGPSSVVTRILKSQHAAMFRHFQQIMFIYNDTIAAKQEKCKTFILRQLEVAGKEMSEEDVNDMLHQGKWEVFNESLLTEINITKAQLSEIEQRHKELVNLENQIKDLRDLFIQISLLVEEQGESINNIEMTVNSTKEYVNNTKEKFGLAVKYKKRNPCRVLCCWCCPCCSSK [STX19],1.17
14,MSTAAVPELKQISRVEAMRLGPGWSHSCHAMLYAANPGQLFGRIPMRFSVLMQMRFDGLLGFPGGFVDRRFWSLEDGLNRVLGLGLGCLRLTEADYLSSHLTEGPHRVVAHLYARQLTLEQLHAVEISAVHSRDHGLEVLGLVRVPLYTQKDRVGGFPNFLSNAFVSTAKCQLLFALKVLNMMPEEKLVEALAAATEKQKKALEKLLPASS [NUDT16L1],2.45
15,MKTVKEKKECQRLRKSAKTRRVTQRKPSSGPVCWLCLREPGDPEKLGEFLQKDNISVHYFCLILSSKLPQRGQSNRGFHGFLPEDIKKEAARASRKICFVCKKKGAAINCQKDQCLRNFHLPCGQERGCLSQFFGEYKSFCDKHRPTQNIQHGHVGEESCILCCEDLSQQSVENIQSPCCSQAIYHRKCIQKYAHTSAKHFFKCPQCNNRKEFPQEMLRMGIHIPDRDAAWELEPGAFSDLYQRYQHCDAPICLYEQGRDSFEDEGRWCLILCATCGSHGTHRDCSSLRSNSKKWECEECSPAAATDYIPENSGDIPCCSSTFHPEEHFCRDNTLEENPGLSWTDWPEPSLLEKPESSRGRRSYSWRSKGVRITNSCKKSK [PHF7],0.514
16,MFWKLSLSLFLVAVLVKVAEARKNRPAGAIPSPYKDGSSNNSERWQHQIKEVLASSQEALVVTERKYLKSDWCKTQPLRQTVSEEGCRSRTILNRFCYGQCNSFYIPRHVKKEEESFQSCAFCKPQRVTSVLVELECPGLDPPFRLKKIQKVKQCRCMSVNLSDSDKQ [GREM2],1.95
17,MVVREASAAQASLSQVLPQLRYLHIFLEQVHTHFQEQSVGERGAAIQLAEGLARQLCTDCQLNKLFYREEFVLATLLDPCFKGKIEAILPWGPTDIDHWKQVLVYKVKEIRVSEYSLNSPSPLQSPRGLCVDPTRVAKSSGVEGRSQGEPLQSSSHSGAFLLAQREKGLLESMGLLASERSGGSLSTKSHWASIIVKKYLWENETVGAQDDPLAYWEKKREAWPPSICLTPHRSLL [C7orf29],1.08
18,MEKEKGNDDGIPDQENSLDFSEHFNQLELLETHGHLIPTGTQSLWVGNSDEDEEQDDKNEEWYRLQEKKMEKDPSRLLLWAAEKNRLTTVRRLLSEKATHVNTRDEDEYTPLHRAAYSGHLDIVQELIAQGADVHAVTVDGWTPLHSACKWNNTRVASFLLQHDADINAQTKGLLTPLHLAAGNRDSKDTLELLLMNRYVKPGLKNNLEETAFDIARRTSIYHYLFEIVEGCTNSSPQS [ANKRD49],1.02
